No constants are given. Whether binding was seen depends on the method and setting. In cells and extracts the contact can be indirect.

By UniProt entry, the sequences of proteins in these tests, tags left out. Where a name states a change or a piece, a line headed by the entry shows the natural chain unless it says otherwise. Residues count along the entry.
UniProt P35443, residues 286-462: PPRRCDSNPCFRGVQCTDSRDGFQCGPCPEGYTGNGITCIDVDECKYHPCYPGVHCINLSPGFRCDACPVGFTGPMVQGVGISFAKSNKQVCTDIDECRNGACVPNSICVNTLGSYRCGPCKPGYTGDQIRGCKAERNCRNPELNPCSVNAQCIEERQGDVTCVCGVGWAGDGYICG
UniProt P54290, residues 25-1091: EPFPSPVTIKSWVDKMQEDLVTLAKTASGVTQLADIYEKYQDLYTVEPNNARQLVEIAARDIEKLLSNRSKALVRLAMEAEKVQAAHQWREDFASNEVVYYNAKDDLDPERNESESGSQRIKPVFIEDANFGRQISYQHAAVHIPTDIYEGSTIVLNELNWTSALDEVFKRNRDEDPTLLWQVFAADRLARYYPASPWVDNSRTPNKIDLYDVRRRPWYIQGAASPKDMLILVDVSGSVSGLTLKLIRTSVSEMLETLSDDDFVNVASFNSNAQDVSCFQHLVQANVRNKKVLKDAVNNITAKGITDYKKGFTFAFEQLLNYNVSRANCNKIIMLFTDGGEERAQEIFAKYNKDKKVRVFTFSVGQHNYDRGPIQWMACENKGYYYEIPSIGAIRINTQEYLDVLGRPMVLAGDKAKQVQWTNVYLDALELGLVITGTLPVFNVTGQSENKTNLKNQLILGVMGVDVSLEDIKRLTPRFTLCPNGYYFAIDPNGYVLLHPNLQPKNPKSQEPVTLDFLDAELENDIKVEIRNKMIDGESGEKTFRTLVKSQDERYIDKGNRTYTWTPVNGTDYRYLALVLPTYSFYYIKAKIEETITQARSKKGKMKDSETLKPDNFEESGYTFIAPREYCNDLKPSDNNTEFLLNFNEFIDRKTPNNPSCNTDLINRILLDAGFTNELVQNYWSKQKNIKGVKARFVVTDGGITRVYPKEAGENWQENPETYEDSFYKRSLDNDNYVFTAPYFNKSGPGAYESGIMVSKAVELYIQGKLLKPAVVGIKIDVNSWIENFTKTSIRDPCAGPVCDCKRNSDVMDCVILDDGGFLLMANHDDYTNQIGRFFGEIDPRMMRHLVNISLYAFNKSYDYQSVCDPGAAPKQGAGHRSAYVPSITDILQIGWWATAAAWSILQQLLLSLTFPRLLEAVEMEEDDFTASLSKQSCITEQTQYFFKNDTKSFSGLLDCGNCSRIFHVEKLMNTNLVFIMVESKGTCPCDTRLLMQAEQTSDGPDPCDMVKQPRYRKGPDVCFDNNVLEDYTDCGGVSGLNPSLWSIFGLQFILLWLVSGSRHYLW

This test has as its target thrombospondin-4 EGF domain construct, C-terminal HA tag (TSP4-EGF_HA) (human) (UniProt P35443). Nature of the test: co-IP; tsA-201 cells co-transfected with α2δ-1 construct and TSP4_HA construct; whole cell lysate (1 mg protein) incubated overnight at 4 °C with 5 μg/ml rabbit anti-HA antibody, Protein-G or Protein-A/G-PLUS agarose; blot for α2δ-1.

Take “calcium channel α2δ-1 subunit (wild type) (from UniProt P54290 25-1091)”: the binding entry is “no binding”.

For the origin of these results see publication PMC4830977 (Scientific Reports, 2016).
